The values that follow come from PubChem BioAssay AID493014 (National Center for Advancing Translational Sciences (NCATS), 2011).

The test in a line: qHTS Assay to Find Inhibitors of Chronic Active B-Cell Receptor Signaling. To be noted: ABC-DLBCL IkBa-CBG/CBR reporter, luminescence ratio (green luciferase fused to IkBa over red control in TMD8 lymphoma cells), 4 h. The procedure, abridged: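 Compounds up to 46 uM were incubated four hours with TMD8 cells whose green CBG68 luciferase is fused to IkappaBalpha; red CBR luminescence normalised the signal, and concentration-effect curves were fitted to fusion, red and ratio data.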
A general note: Quantitative high-throughput screening tests each substance at several concentrations.

[1] abbreviates: measured here: CBR red luminescence, cell number.
Where [2] appears, read: measured here: IkBa-CBG green luminescence.

This is one part of the list. These are further read-outs of the screen, such as a control signal, another cell line or another target. No call is given for them. The list favours compounds with an active or inconclusive main result. Words in brackets tell the shape of the fitted curve; partial curves, single points and poor fits give uncertain potencies.

Regarding `CN1CCCN(C(=O)c2cc(=O)[nH]c3ccccc23)c2nc3ccccc3nc21`, the AC50 (in general, the midpoint of the concentration-response curve, whichever way the signal moves) under setting [1] was 2.59 µM [rising, full curve, poor fit].

As for `Cn1c(SCC(=O)N2CCCc3ccccc32)ncc(C(=O)Nc2ccccc2)c1=O`, the half-maximal activity concentration (AC50) under setting [1] is 0.447 µM [falling, full curve].

Regarding `COc1ccccc1C(=O)NNC(=O)C(=O)Nc1cccc(Cl)c1C`, the AC50 under setting [1] was 12.6 µM [falling, single point].

For the molecule `C=CCC1(CC=C)CCCN1C(=O)Cn1nnnc1CN(C)C(C)C`, the AC50 under setting [1] is 0.112 µM [falling, full curve, poor fit].

On to `Cc1ccccc1OCCSc1nnc(C)n1-c1ccccc1`, for which the concentration at half-maximal activity (AC50) under setting [1] was 13 µM [rising, single point].

As to `COC(=O)c1cccc(C23CC4(C2)[C@H](CN(C)[C@@H]4c2ccccc2)C3c2ccccc2)c1` (some centres undefined), the AC50 under setting [1] is 4.47 µM [falling, full curve, poor fit].

For `Cc1ccc(Cl)cc1N1CCN(C(=O)c2noc(C)c2[N+](=O)[O-])CC1`, under setting [1], the AC50 is 35.5 µM [falling, single point].

Regarding `CCN(CC)c1c([N+](=O)[O-])c(=O)sc2ccccc12`, the AC50 under setting [1] was 29.1 µM [falling, single point].

Regarding `O=C(Nc1nc(-c2ccccc2)ns1)c1cccs1`, under setting [1], the half-maximal activity concentration (AC50) is 1.84 µM [falling, full curve, poor fit].

With `Cc1n[nH]c(=O)c2c(NC(=O)CSc3c(Cl)cccc3Cl)oc(C)c12`, the concentration at half-maximal activity (AC50) under setting [1] is 29.1 µM [rising, single point].

On to `COC(=O)c1ccccc1-c1ccc(/C=N/Nc2nc(N3CCCC3)nc(N3CCCC3)n2)o1`, for which the AC50 under setting [1] was 35.5 µM [falling, single point] and the concentration at half-maximal activity (AC50) under setting [2] is 11.2 µM [rising, partial curve, poor fit].

For the molecule `O=C(NNC(=O)c1ccco1)c1csc(N2CCOCC2)n1`, the AC50 under setting [1] is 23.1 µM [falling, single point] and the concentration at half-maximal activity (AC50) under setting [2] is 20.6 µM [rising, partial curve, poor fit].

Consider `CCCc1nnc(NC(=O)c2ccncc2)s1`, for which, under setting [1], the AC50 is 25.1 µM [falling, single point].

As to `CCN(CC)c1ccc(C(=O)OCC(=O)Nc2sccc2C#N)cc1`, under setting [1], the AC50 was 2.59 µM [rising, full curve].

As to `Cc1cc(/C([O-])=C(/C(=S)Nc2ccc(F)cc2)[n+]2ccccc2)c(C)n1-c1ccc(F)cc1`, the AC50 under setting [1] is 3.55 µM [falling, full curve, poor fit].

`COc1ccc(-n2cc(-c3ccccc3)c3c(NC4CCCC4)ncnc32)cc1`: under setting [1], the AC50 was 2.51 µM [rising, full curve].

In the case of `CC(=O)Nc1ccc(S(=O)(=O)NCCC(=O)Nc2ccc(C)c(Cl)c2)cc1`, under setting [2], the concentration at half-maximal activity (AC50) was 23.1 µM [falling, partial curve, poor fit].
